These are yes or no findings as the source states them, for the method shown. Some entries that bind do so weakly or less than the wild type. Where a sequence is shown, tags or fusion partners need not be part of it.
Molecular target: GluA1 AMPA glutamate receptor subunit on retinal ganglion cell (RGC) neuron processes (rat (endogenous in RGC cultures)) (UniProt P19490)
Experiment: fluorescence microscopy of Alexa 488-labelled protein bound to cultured neurons; 0.4 ug/ml (0.008 uM) NP1-Alexa 488 added to cultured rat RGCs for 24 h, alone or with 2.5 uM GluA1-Fab or Mut-Fab; cells fixed, surface NP1-Alexa 488 puncta counted; only the binder purified

Protein sequences, listed by entry. Tags and fused reporters are not part of them. Residues count along the entry.
UniProt P19490, residues 19-907: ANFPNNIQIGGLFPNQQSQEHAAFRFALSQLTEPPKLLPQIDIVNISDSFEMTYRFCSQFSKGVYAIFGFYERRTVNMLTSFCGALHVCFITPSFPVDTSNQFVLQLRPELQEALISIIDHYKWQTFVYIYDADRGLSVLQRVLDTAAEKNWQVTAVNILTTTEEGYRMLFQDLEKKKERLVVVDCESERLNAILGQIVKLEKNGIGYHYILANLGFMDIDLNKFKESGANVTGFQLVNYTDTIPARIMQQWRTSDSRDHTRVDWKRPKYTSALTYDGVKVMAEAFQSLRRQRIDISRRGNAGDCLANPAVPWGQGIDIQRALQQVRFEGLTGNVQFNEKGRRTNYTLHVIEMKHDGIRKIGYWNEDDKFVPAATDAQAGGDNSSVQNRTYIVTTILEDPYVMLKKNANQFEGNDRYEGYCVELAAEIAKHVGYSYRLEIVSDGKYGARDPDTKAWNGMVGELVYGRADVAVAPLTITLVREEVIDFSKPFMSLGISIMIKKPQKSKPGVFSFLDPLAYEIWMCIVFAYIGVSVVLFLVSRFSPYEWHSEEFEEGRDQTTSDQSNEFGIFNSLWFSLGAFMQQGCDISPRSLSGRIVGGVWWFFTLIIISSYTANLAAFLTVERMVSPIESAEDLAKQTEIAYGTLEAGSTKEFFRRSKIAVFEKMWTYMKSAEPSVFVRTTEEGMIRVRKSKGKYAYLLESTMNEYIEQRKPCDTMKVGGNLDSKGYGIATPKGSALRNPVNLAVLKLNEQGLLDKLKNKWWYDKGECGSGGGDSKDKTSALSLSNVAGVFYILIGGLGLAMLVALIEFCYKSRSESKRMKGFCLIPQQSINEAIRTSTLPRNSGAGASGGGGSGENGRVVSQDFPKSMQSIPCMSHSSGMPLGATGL

B1: Alexa 488-tagged neuronal pentraxin 1 (NP1) (ligand, UniProt Q62443 23-432)
chain: QDFGPTRFICTSVPVDADMCAASVAAGGAEELRSNVLQLRETVLQQKETILSQKETIRELTTKLGRCESQSTLDSGPGEARSGGGRKQPGSGKNTMGDLSRTPAAETLSQLGQTLQSLKTRLENLEQYSRLNSSSQTNSLKDLLQSKIDDLERQVLSRVNTLEEGKGGPKNDTEERAKIESALTSLHQRISELEKGQKDNRPGDKFQLTFPLRTNYMYAKVKKSLPEMYAFTVCMWLKSSAAPGVGTPFSYAVPGQANELVLIEWGNNPMEILINDKVAKLPFVINDGKWHHICVTWTTRDGVWEAYQDGTQGGNGENLAPYHPIKPQGVLVLGQEQDTLGGGFDATQAFVGELAHFNIWDRKLTPGEVYNLATCSSKALSGNVIAWAESQIEIFGGATKWTFEACRQIN
modifications: Alexa Fluor 488 label (Invitrogen kit A20181)
binding: binds

— publication PMC5663462
